Values from PubChem BioAssay AID720505 (Drosophila RNAi Screening Center, 2013)
The screen tested about 20,000 reagents; below is a random part of those with a known target gene and a result. Over the whole deposit, about 2,100 (10%) are marked active. 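Raw plate signals without normalisation; calls rest on control-based scores that were not deposited; replicate 2 separates called from uncalled poorly.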 Names joined by + are all predicted targets of the reagent. No sequences are given here. The record does not give: the amount of reagent, the time to read-out.

Purpose: 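Fly regulators or components of the CRAC channel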 (primary screen)
System: Drosophila S2R+ cells
Knock-down reagent: long dsRNA against Drosophila genes
Treatment: thapsigargin (2 µM) in calcium-free buffer to empty internal stores, then 2 mM calcium added back
Measurement: 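Fluo-4 signal in 384-well plates read on a FLIPR after thapsigargin (2 µM, calcium-free) store depletion and 2 mM calcium add-back; unnormalised mean endpoint per well; screen run twice, selected wells retested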
Direction: calcium signal and retest calcium signal: higher = more calcium entry after store depletion
Hit rule: 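Knock-downs counted as hits when calcium entry dropped relative to STIM1 positive and Rho1 negative controls present on each plate; roughly 1500 genes called, with reductions of differing size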
Meaning of the calls: active = called as lowering calcium entry; inactive = not called

calcium signal, replicate 1 | calcium signal, replicate 2 | retest calcium signal, replicate 1 | retest calcium signal, replicate 2 | Outcome | target | amplicon
83.9 | 112 | – | – | inactive | xmas | DRSC21306
76.6 | 195 | – | – | inactive | xmas | DRSC22178
– | – | – | – | inactive | CG33978 | DRSC17106
119 | 147 | – | – | inactive | CG30054 | DRSC05354
89 | 93.2 | – | – | inactive | Ugt37C1 (UDP-glycosyltransferase family 37 member C1) | DRSC07416
107 | 139 | – | – | inactive | ru (roughoid) | DRSC08258
122 | 133 | – | – | inactive | RhoGAP100F (Rho GTPase activating protein at 100F) | DRSC15409
76.6 | 148 | – | – | inactive | Gs1 (Glutamine synthetase 1) | DRSC00753
189 | 126 | 126 | 85.2 | inactive | Alg13 (Alg13 UDP-N-acetylglucosaminyltransferase subunit) | DRSC14864
195 | 144 | – | – | inactive | tll (tailless) | DRSC17085
207 | 154 | – | – | inactive | CG4658 | DRSC02768
72 | 57.1 | – | – | inactive | Acbp6 (Acyl-CoA binding protein 6) | DRSC10217
51.4 | 59.2 | – | – | active | Fs(2)Ket (Female sterile (2) Ketel) | DRSC03328
110 | 113 | – | – | inactive | CG5681 | DRSC02876
109 | 118 | – | – | inactive | CG9525 | DRSC03249
171 | 92 | – | – | inactive | eEF1beta (eukaryotic translation elongation factor 1 beta) | DRSC07419
233 | 272 | – | – | inactive | CCT3 (Chaperonin containing TCP1 subunit 3) | DRSC16602
98.5 | 130 | 6767 | 98.9 | inactive | CG12480 | DRSC19460
107 | 125 | – | – | inactive | CG4119 | DRSC17741
153 | 205 | – | – | inactive | spas (spastin) | DRSC15929
78.7 | 89.3 | – | – | inactive | dikar | DRSC09699
127 | 156 | – | – | inactive | dikar | DRSC22261
178 | 128 | – | – | inactive | pkm (Pinkman) | DRSC19674
176 | 149 | – | – | inactive | RFeSP (Rieske iron-sulfur protein) | DRSC00702
96.1 | 103 | – | – | inactive | GstD1 (Glutathione S transferase D1) | DRSC16683
93 | 89.4 | – | – | inactive | Irk3 (Inwardly rectifying potassium channel 3) | DRSC02047
117 | 174 | – | – | inactive | CG31224 | DRSC15272
238 | 351 | – | – | inactive | CG31224 | DRSC16290
116 | 118 | – | – | inactive | l(2)34Fc (lethal (2) 34Fc) | DRSC01910
168 | 109 | – | – | inactive | CG3565 | DRSC04389
126 | 125 | – | – | inactive | CG13841 | DRSC14691
170 | 185 | – | – | inactive | CG8586 | DRSC07218
148 | 217 | – | – | inactive | CG18746 | DRSC15383
127 | 72.4 | – | – | inactive | Serinc (Serine incorporator) | DRSC11296
82.6 | 81 | – | – | inactive | mRpL17 (mitochondrial ribosomal protein L17) | DRSC08350
91 | 125 | – | – | inactive | CG6495 | DRSC01993

Reformatted: 17 of the entries above.
calcium signal, replicate 1	calcium signal, replicate 2	retest calcium signal, replicate 1	retest calcium signal, replicate 2	Outcome	target	amplicon
122	133			inactive	RhoGAP100F (Rho GTPase activating protein at 100F)	DRSC15409
76.6	148			inactive	Gs1 (Glutamine synthetase 1)	DRSC00753
189	126	126	85.2	inactive	Alg13 (Alg13 UDP-N-acetylglucosaminyltransferase subunit)	DRSC14864
195	144			inactive	tll (tailless)	DRSC17085
207	154			inactive	CG4658	DRSC02768
72	57.1			inactive	Acbp6 (Acyl-CoA binding protein 6)	DRSC10217
51.4	59.2			active	Fs(2)Ket (Female sterile (2) Ketel)	DRSC03328
110	113			inactive	CG5681	DRSC02876
109	118			inactive	CG9525	DRSC03249
171	92			inactive	eEF1beta (eukaryotic translation elongation factor 1 beta)	DRSC07419
233	272			inactive	CCT3 (Chaperonin containing TCP1 subunit 3)	DRSC16602
98.5	130	6767	98.9	inactive	CG12480	DRSC19460
107	125			inactive	CG4119	DRSC17741
153	205			inactive	spas (spastin)	DRSC15929
78.7	89.3			inactive	dikar	DRSC09699
127	156			inactive	dikar	DRSC22261
178	128			inactive	pkm (Pinkman)	DRSC19674

Additional entries follow:
calcium signal, replicate 1 | calcium signal, replicate 2 | retest calcium signal, replicate 1 | retest calcium signal, replicate 2 | Outcome | target | amplicon
117 | 124 | – | – | inactive | Ho (Heme oxygenase) | DRSC14939
154 | 79.2 | 111 | 106 | inactive | Df31 (Decondensation factor 31) | DRSC03738
105 | 161 | – | – | inactive | Df31 (Decondensation factor 31) | DRSC22163
81.9 | 96 | – | – | inactive | CG2921 | DRSC04324
113 | 127 | – | – | inactive | CG12909 | DRSC06224
96 | 115 | – | – | inactive | por (porcupine) | DRSC20362
64.7 | 46.4 | – | – | active | GstO1 (Glutathione S transferase O1) | DRSC10688
158 | 114 | – | – | inactive | didum (dilute class unconventional myosin) | DRSC07603
109 | 109 | – | – | inactive | CG6664 | DRSC10690
58.1 | 58.2 | – | – | active | CG7465 | DRSC08592
96.5 | 214 | – | – | inactive | CG7465 | DRSC22320
169 | 157 | – | – | inactive | mip120 (Myb-interacting protein 120) | DRSC06960
129 | 174 | – | – | inactive | CG9837 | DRSC16573
119 | 129 | – | – | inactive | RpS10a (Ribosomal protein S10a) | DRSC14161
109 | 106 | – | – | inactive | Orai | DRSC05684
35.3 | 23.3 | – | – | active | Orai | DRSC22061
89.5 | 101 | – | – | inactive | Pldn (Pallidin) | DRSC10137
61.3 | 80.1 | – | – | active | Uro (Urate oxidase) | DRSC03469
192 | 134 | – | – | inactive | MFS3 (Major Facilitator Superfamily Transporter 3) | DRSC00664
133 | 92.9 | – | – | inactive | Ptp10D (Protein tyrosine phosphatase 10D) | DRSC20272
94.5 | 92.9 | – | – | inactive | CG31741 | DRSC02887
121 | 76.7 | – | – | inactive | CSN6 (COP9 signalosome subunit 6) | DRSC16593
135 | 121 | – | – | inactive | Strn-Mlck (Stretchin-Mlck) | DRSC05032
68 | 80.4 | – | – | active | Strn-Mlck (Stretchin-Mlck) | DRSC05598
117 | 112 | – | – | inactive | Strn-Mlck (Stretchin-Mlck) | DRSC06571
93 | 77 | – | – | inactive | Strn-Mlck (Stretchin-Mlck) | DRSC07471
132 | 126 | – | – | inactive | CG5623 | DRSC15848
274 | 101 | – | – | inactive | CG15034 | DRSC17966
46.7 | 105 | – | – | active | SmydA-2 (SET and MYND domain containing, arthropod-specific, member 2) | DRSC10296
– | – | – | – | inactive | rad (retired record) | DRSC18966
112 | 84.5 | 6552 | 84.3 | inactive | rad (retired record) | DRSC19687
104 | 85.3 | – | – | inactive | rad (retired record) | DRSC19816
85.5 | 84.9 | – | – | inactive | rad (retired record) | DRSC22865
107 | 99.3 | – | – | inactive | CG7328 | DRSC10812
109 | 120 | – | – | inactive | lncRNA:CR32660 (long non-coding RNA:CR32660) | DRSC22965
129 | 144 | – | – | inactive | CheB42a (Chemosensory protein B 42a) | DRSC22881
72.8 | 142 | – | – | active | Shaw (Shaker cognate w) | DRSC00433
139 | 73 | 69.2 | 86.7 | inactive | Shaw (Shaker cognate w) | DRSC00788
81.5 | 123 | – | – | active | Shaw (Shaker cognate w) | DRSC21368
130 | 216 | – | – | inactive | CG8668 | DRSC03101
167 | 218 | – | – | inactive | Gp210 (Glycoprotein 210 kDa) | DRSC04861
101 | 158 | – | – | inactive | Gp210 (Glycoprotein 210 kDa) | DRSC04900
103 | 127 | – | – | inactive | CG34428 | DRSC10119
104 | 222 | – | – | inactive | PolrMT (RNA polymerase mitochondrial) | DRSC00660
125 | 81.3 | – | – | inactive | CG5111 | DRSC15717
140 | 166 | – | – | inactive | CG14072 | DRSC02375
122 | 104 | – | – | inactive | mod (modulo) | DRSC16999
101 | 121 | – | – | inactive | Jhbp6 (Juvenile hormone binding protein 6) | DRSC11714
95.1 | 144 | – | – | inactive | CG9682 | DRSC16536
167 | 131 | – | – | inactive | CG5742 | DRSC06949
187 | 319 | – | – | inactive | Ir93a (Ionotropic receptor 93a) | DRSC15212
198 | 122 | – | – | inactive | Ir93a (Ionotropic receptor 93a) | DRSC15213
119 | 179 | – | – | inactive | CG4806 | DRSC04491
147 | 152 | – | – | inactive | tor (torso) | DRSC07707
73.3 | 96.8 | – | – | inactive | tho2 | DRSC00646
79 | 118 | – | – | inactive | Eato (Engulfment ABC Transporter in the ovary) | DRSC01891
159 | 119 | – | – | inactive | Eato (Engulfment ABC Transporter in the ovary) | DRSC03061
123 | 153 | – | – | inactive | Lsm11 | DRSC06238
157 | 156 | – | – | inactive | CG12935 + Nop10 | DRSC07025
94.1 | 95.8 | – | – | inactive | CG6304 | DRSC02948
89.5 | 114 | – | – | inactive | Nplp2 (Neuropeptide-like precursor 2) | DRSC09824
103 | 120 | – | – | inactive | CG17544 | DRSC02624
109 | 74.8 | – | – | inactive | koi (klaroid) | DRSC04980
92.6 | 97.8 | – | – | inactive | koi (klaroid) | DRSC04991
171 | 130 | – | – | inactive | Coq7 + shf | DRSC18448
124 | 157 | – | – | inactive | CG10970 | DRSC17772
151 | 113 | – | – | inactive | Inx5 (Innexin 5) | DRSC20051
98.8 | 119 | – | – | inactive | Recs1 | DRSC16545
117 | 186 | – | – | inactive | mts (microtubule star) | DRSC03574
166 | 84 | – | – | inactive | Wnt6 (Wnt oncogene analog 6) | DRSC02795
